Assay results taken from US20050191710A1, “Method for labeling a membrane-localized protein” (priority 2004, published 2005).
These are yes or no findings as the source states them, for the method shown. Some results given as binding are weak or reduced against the parent protein; the word gives no strength.

Amino acid sequences for entries named in this document (tags omitted). A change or cut given only in a name is not applied to a line headed by its entry. Chains listed by the source or under a name are the forms on record and can include a tag or linker.
CFTR-biotintag, enzymatically biotinylated by BirA at the cell surface (P13569, form named): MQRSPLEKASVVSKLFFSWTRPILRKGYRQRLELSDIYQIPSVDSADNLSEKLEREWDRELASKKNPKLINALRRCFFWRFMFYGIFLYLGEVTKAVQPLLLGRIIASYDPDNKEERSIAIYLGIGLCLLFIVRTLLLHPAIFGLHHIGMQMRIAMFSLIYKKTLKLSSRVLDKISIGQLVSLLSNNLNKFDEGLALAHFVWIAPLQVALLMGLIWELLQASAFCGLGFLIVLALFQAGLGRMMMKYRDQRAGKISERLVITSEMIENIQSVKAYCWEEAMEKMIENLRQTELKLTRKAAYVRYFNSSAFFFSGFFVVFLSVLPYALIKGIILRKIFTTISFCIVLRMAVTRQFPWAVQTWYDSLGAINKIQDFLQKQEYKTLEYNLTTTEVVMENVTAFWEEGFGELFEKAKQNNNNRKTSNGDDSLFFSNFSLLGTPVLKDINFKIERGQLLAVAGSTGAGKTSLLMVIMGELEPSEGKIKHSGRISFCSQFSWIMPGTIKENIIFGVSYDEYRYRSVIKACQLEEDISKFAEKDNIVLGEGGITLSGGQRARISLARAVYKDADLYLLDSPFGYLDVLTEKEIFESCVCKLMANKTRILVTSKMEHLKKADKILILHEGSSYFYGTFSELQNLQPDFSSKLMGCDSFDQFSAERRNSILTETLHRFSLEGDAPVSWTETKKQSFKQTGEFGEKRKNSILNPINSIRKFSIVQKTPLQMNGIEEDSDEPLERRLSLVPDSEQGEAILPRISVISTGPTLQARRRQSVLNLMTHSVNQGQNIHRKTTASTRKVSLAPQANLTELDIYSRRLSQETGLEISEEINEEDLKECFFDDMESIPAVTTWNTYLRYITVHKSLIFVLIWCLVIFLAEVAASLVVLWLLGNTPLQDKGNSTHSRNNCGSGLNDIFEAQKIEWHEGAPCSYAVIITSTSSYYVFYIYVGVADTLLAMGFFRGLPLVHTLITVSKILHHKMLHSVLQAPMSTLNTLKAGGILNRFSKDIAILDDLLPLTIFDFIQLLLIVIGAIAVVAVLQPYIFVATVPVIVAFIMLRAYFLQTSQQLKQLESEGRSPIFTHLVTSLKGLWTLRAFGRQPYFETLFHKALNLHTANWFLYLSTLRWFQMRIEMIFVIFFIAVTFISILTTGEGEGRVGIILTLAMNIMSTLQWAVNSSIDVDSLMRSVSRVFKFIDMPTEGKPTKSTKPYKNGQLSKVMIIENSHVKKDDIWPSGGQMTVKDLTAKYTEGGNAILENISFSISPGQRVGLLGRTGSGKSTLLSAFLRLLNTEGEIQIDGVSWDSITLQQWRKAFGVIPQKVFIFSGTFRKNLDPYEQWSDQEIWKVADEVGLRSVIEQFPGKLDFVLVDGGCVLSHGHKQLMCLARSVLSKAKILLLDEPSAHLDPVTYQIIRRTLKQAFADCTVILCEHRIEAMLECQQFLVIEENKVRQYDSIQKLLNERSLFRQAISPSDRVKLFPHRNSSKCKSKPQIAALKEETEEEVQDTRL
CFTR-biotintag-10his, enzymatically biotinylated by BirA (P13569, form named): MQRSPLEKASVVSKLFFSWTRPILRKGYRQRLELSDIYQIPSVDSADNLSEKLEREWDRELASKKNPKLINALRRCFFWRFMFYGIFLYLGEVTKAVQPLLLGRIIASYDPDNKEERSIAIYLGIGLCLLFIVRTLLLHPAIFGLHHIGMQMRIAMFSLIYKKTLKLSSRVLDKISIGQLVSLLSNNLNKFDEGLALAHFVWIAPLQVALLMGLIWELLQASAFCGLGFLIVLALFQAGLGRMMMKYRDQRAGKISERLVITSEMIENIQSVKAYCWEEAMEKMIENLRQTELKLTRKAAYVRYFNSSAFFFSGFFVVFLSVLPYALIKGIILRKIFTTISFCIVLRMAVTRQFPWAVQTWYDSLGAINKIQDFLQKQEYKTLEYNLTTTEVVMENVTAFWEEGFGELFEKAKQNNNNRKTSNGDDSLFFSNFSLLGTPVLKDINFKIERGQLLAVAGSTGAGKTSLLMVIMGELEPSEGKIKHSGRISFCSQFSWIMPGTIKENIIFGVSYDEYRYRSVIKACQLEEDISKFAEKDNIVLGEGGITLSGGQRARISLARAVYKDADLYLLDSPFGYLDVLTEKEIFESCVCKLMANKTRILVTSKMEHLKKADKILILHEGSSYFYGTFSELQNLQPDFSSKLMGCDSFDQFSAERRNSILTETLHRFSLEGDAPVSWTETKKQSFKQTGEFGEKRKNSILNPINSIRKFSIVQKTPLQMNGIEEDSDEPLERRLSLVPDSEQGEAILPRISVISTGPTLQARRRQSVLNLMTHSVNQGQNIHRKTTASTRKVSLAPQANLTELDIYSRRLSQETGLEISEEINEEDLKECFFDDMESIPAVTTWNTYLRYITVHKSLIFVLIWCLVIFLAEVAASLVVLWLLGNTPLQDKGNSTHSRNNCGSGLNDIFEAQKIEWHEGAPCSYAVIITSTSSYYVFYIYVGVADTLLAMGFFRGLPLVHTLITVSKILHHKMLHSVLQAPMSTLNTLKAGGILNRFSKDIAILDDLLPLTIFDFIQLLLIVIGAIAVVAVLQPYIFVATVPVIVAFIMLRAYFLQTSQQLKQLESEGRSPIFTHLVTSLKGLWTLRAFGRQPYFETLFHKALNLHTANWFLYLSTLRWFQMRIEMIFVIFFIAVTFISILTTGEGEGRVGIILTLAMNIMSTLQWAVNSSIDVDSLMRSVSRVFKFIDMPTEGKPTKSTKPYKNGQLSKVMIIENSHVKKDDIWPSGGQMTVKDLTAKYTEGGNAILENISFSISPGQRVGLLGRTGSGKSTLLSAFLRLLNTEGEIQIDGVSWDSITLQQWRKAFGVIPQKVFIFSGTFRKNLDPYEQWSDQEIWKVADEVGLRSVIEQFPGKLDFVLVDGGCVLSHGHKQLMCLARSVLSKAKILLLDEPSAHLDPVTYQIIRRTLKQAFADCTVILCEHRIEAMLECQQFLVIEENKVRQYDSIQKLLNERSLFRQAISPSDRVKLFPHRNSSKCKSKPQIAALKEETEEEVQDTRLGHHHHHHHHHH

Assays:
[1] = target: CFTR-biotintag, enzymatically biotinylated by BirA at the cell surface (UniProt P13569); assay: capture of biotinylated CFTR on streptavidin beads, western blot
[2] = target: CFTR-biotintag-10his, enzymatically biotinylated by BirA (UniProt P13569); assay: capture on streptavidin beads, western blot
[3] = target: CFTR-biotintag, enzymatically biotinylated by BirA at the cell surface (UniProt P13569); assay: confocal imaging of live BHK cells after BirA and streptavidin-Alexa568

| binding [1] | binding [2] | binding [3] | Substance |
| --- | --- | --- | --- |
| binds | binds |  | streptavidin beads (from UniProt P22629 37-163) |
|  |  | binds | fluorescent streptavidin (from UniProt P22629 37-163) |
